The values that follow are results of earlier work, collected in patent US20100016256A1, “Taxane Compounds for Treating Eye Disease” (priority 2008, published 2010).

Molecules are shown by their SMILES.

For the series the following is noted: unconjugated taxane; cited from earlier work.

Take `CC(=O)O[C@H]1C(=O)[C@@]2(C)[C@H]([C@H](OC(=O)c3ccccc3)[C@]3(O)C[C@H](OC(=O)[C@H](O)[C@@H](NC(=O)c4ccccc4)c4ccccc4)C(C)=C1C3(C)C)[C@]1(OC(C)=O)CO[C@@H]1C[C@@H]2O` [paclitaxel]: the water solubility entry is given as “less than 0.004 mg/ml”.
